For test [1], the target named is T1, GST-tagged spRed1 peptide (D33A, E35A) (S. pombe).
T1 sequence: SDKEAGAISEDDP
The test can be described thus: pull-down; GST pull-down: bait with 1.5 molar excess of prey, 20 mM HEPES pH 7.5, 150 mM NaCl (or higher, up to 600 mM or 1.5 M in the washes), 5% glycerol, 0.1% NP-40, 4 °C, glutathione agarose; SDS-PAGE, Coomassie; both purified.

In test [2] the target is T2, Red1 (spRed1), full length (S. pombe) (UniProt Q9UTR8).
T2 sequence: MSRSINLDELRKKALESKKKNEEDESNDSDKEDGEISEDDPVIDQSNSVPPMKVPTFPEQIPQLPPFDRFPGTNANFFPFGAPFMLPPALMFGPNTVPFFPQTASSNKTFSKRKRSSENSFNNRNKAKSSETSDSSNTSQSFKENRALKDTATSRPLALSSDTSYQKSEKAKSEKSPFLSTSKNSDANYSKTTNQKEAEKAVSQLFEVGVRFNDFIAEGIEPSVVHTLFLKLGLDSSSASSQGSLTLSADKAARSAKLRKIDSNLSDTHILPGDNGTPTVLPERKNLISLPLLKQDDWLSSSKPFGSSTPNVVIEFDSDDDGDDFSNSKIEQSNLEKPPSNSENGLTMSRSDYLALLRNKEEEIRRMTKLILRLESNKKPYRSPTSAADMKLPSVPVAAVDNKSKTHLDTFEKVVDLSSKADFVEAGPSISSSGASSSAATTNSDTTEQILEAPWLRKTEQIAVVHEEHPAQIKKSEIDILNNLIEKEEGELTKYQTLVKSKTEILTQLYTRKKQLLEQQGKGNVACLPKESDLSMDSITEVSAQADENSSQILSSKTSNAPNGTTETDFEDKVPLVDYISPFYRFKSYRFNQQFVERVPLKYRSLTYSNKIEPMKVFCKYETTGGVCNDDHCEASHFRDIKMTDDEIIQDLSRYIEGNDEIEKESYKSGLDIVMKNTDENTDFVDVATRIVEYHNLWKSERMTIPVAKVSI
The test can be described thus: two-hybrid; Gal4 BD and AD fusions (pGBKT7/pGADT7 or pG4BDN22/pG4ADHAN111) co-transformed into PJ69-4A; growth after 3 days at 30 °C on SDC-His (weak), SDC-His + 1 mM 3-AT (medium), SDC-Ade (strong).

Test [3] deals with T3, Ars2 (spArs2), full length (S. pombe) (UniProt O94326).
T3 sequence: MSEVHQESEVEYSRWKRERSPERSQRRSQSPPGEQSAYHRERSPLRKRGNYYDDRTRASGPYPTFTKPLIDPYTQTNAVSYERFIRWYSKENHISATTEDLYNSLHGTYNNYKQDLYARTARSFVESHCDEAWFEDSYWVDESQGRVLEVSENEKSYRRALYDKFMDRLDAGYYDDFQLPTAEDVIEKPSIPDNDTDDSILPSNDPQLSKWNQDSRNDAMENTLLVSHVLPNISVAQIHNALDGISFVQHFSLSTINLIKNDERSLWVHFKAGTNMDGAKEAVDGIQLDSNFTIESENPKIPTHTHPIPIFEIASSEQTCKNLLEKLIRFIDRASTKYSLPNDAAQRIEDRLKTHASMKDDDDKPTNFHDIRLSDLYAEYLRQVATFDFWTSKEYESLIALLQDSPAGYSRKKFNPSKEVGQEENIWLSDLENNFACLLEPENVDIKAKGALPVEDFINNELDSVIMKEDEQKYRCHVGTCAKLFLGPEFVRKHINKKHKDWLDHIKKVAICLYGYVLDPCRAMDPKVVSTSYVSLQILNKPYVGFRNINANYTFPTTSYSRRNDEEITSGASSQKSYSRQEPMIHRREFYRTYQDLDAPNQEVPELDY
The test can be described thus: two-hybrid; yeast three-hybrid: bridging protein with N-terminal NLS from a modified pRS426 plasmid (ADH1 promoter) or the empty plasmid as control; growth on SDC-Leu-Trp-Ura-His.

Test [4] deals with T4, Pab2 (spPab2), full length (S. pombe) (UniProt O14327).
T4 sequence: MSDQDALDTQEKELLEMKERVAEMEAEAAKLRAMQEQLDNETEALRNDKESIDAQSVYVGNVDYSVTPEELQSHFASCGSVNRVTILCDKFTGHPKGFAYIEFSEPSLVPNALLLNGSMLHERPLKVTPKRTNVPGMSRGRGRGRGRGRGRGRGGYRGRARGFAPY
The test can be described thus: two-hybrid; Gal4 BD and AD fusions (pGBKT7/pGADT7 or pG4BDN22/pG4ADHAN111) co-transformed into PJ69-4A; growth after 3 days at 30 °C on SDC-His (weak), SDC-His + 1 mM 3-AT (medium), SDC-Ade (strong).

The target in test [5] is Mmi1 (spMmi1), full length (S. pombe) (UniProt O74958). The test is described as above.

Results are given in words; binding and its absence hold for the method and conditions named. Some results given as binding are weak or reduced against the parent protein; the word gives no strength. For some assays here: Tags and fused reporters may be left off the sequences shown.

B1: full-length spArs2 (in vitro binding) (protein, UniProt O94326 1-609)
chain: MSEVHQESEVEYSRWKRERSPERSQRRSQSPPGEQSAYHRERSPLRKRGNYYDDRTRASGPYPTFTKPLIDPYTQTNAVSYERFIRWYSKENHISATTEDLYNSLHGTYNNYKQDLYARTARSFVESHCDEAWFEDSYWVDESQGRVLEVSENEKSYRRALYDKFMDRLDAGYYDDFQLPTAEDVIEKPSIPDNDTDDSILPSNDPQLSKWNQDSRNDAMENTLLVSHVLPNISVAQIHNALDGISFVQHFSLSTINLIKNDERSLWVHFKAGTNMDGAKEAVDGIQLDSNFTIESENPKIPTHTHPIPIFEIASSEQTCKNLLEKLIRFIDRASTKYSLPNDAAQRIEDRLKTHASMKDDDDKPTNFHDIRLSDLYAEYLRQVATFDFWTSKEYESLIALLQDSPAGYSRKKFNPSKEVGQEENIWLSDLENNFACLLEPENVDIKAKGALPVEDFINNELDSVIMKEDEQKYRCHVGTCAKLFLGPEFVRKHINKKHKDWLDHIKKVAICLYGYVLDPCRAMDPKVVSTSYVSLQILNKPYVGFRNINANYTFPTTSYSRRNDEEITSGASSQKSYSRQEPMIHRREFYRTYQDLDAPNQEVPELDY
As for B1, the binding entry in test [1] is recorded as “no binding”.

B2: Pla1 (spPla1), canonical poly(A) polymerase, full length (enzyme, UniProt Q10295 1-566)
chain: MTTKQWGITPPISTAPATEQENALNTALINELKNQNLFESPAESEKRVKVLDELQQITTEFVKKVSLAKHMNEKMANEAGGKIFTYGSYRLGVYGPGSDIDTLVVVPKHVSRDNFFQDLEPMLREREEVTDLAAVPDAYVPIIKFKFLGISIDLIFARLSVPRVPRDLELSDNNLLKGVEERCVLSLNGTRVTDQILQLVPNRAVFKHALRAIKFWAQRRAIYANVVGFPGGVAWAMMVARICQLYPNAVSSVIVAKFFRILHQWNWPQPILLKPIEDGPLQVRIWNPKLYPSDKAHRMPIITPAYPSMCATHNITLSTQTIILREMVRAGEIADQIMVKALPWSALFQKHDFFHRYKHYLTITAAAKTAEAQLKWAGLVESKLRHLVTRLELVDAIALAHPFNKGFDKVYNCSSEEEAQQVASGVTLEVAYESTDHEKLANDTVNEEKADNTESKADGSENGEKQIFPVYTTTCYIGLELEKKKGHPIKRLDISWPTQEFYELCKKWDKYDDTLMNVFIKNTKNTALPDEVFEPGEERPKATKKRSTADTAHSTEQLKRQKVSTA
Consider B2, for which the binding entry in test [2] is reported as “binds”.

B3: CBC complex (Cbc1 fused to Gal4 AD with untagged Cbc2) (complex, UniProt O14253 1-780; Q9P383 1-182)
chain 1: MSSYRGSTRPRKRTREGENYGFRPHRGNSQELLAARIKKDITFLADPRGNSVAADDINYVAMSLSREANDPETISTILDCIQTTAFIIPVKIPHLATLIIRASLRVPLILEKAAAYFCLQYFTNLNSFLYYEAKVDLRMLICMSFALQPGTLKPLFSLLADAISKETKPSVWGDNFLRIILINLPYFIAANNDLGKKDFANEILDQCEIYVRHRKSSITLSNPLSIHDNLSEEELDLLYKQLILSRENDFTFPYISQPWKFFESDFVHIVPVSPSIPEWTFQPTPQQNELPSFKRFFELFNNFEIRTTPDASDVAASIFRDISVDVINHLEFNRVEAAQVLTDLDVYFTYKTFALRGTPVNELPNLDPSESRWKAEDIIVEAVLGELLGSQNTTYKPVYYHSLLIECCRIAPKILAPTFGRVIRLMYTMSSDLPLQTLDRFIDWFSHHLSNFNFHWKWNEWIPDVELDDLHPKKVFMRETITRELILSYYTRISDSLPEELRCLLGEQPSGPNFVYENETHPLYQQSSQIIEALRLHKPLEELDIILQSEEIQNSETSAVRLVMSCAYSLGSRSFSHALNVFEKHLNTLKHFSRKSLDSEIEVVDELFSFWKLQPFNAVMWLDKMLNYSIISITSIIEWLIKQDVTIWSRSYTWSLVNTTFNKLAARLRRSVSNKEDSSLINEANEEKEIVTNLLLSALRALISENAENIWVSHWLNLMLKYVESNFLSVKKDTIEEANEPVQENTSEEQEDTKMQPVDAVDEQPSENNQTAADATNEEK
chain 2: MASITRLDAVSPYLIRRFKNDLRALDAVKQSNCVYVGNLSFYTTEEQIYALFSKCGEIRRIIMGVDRFTKTPCGFCFVEYFENQDALDSLKYISRTSLDERIIRADLDHGYEEGRQYGRGASGGQVRDEMREEFDPGRGGYAKNRQPTSSRQLANYSGISSAPLGSSLELQSNPRYNRWKKN
B3: the binding result in test [3] is given as “binds”.

B4: Mmi1 (spMmi1), full length (protein, UniProt O74958 1-488)
chain: MSNTNFSTSRSSKSIPELPNLEALRSLWPPPSLNESGDTRSVWTTHTGEPVASSVLSTSGSNNFSSPLKRPAPESHDAPIGRRLMVDDPRLIKHGKYDFSRHCTDYGHSYEWPYFRSLRRESMLYHTSGSYPESQPPYSSYSTDAPHYYHAGSESSAYYDSRSRLHGIQPPPKRRTLSPPPRRLADPVVVGSSRYVEEEVYRRPPYTLASEVPSSASAYQAGYSSYPVRSSPQLSHEDTRHGIASSGSTRYPFVPANTRASHSPSLLEPYAHSLPSSVAPVGAYPEKSSYLLSNSSNDSASRKEKPKARASTPPPLNFSRASEHRNEKGERISMINPRVVLDENGISHRSRYFIMLCDNETAIAHAKKTSIWAVKKDSSKRISDAYKKASVYFIFVAQQTYNALGYAQVVSDLNSTELPFWSDSSHAGGVRIKWIKTCNLFSAEISEIVSHMDHGSEARDGMEMMYDEGSRLCTLINYAIMKRIGRDR
As for B4, the binding entry in test [4] and in test [5] was “binds” each time.

For the origin of these results see PMC8187409, “The zinc-finger protein Red1 orchestrates MTREC submodules and binds the Mtl1 helicase arch domain” (Nature Communications, 2021).
